In patent publication EP1595946A2 (Sugen, Inc., dated 2005) one finds binding data, which are given here for one molecule.

This experiment concerns the target coiled-coil domain of an SLK isoform (M83780) displayed on T7 phage (human). Description: T7 phage display, H441 cDNA library, GST-fused bait.

No constants are given. Whether binding was seen depends on the method and setting. Binding can be weak; no strength is given. Sequences can lack the tags named with a protein.

B1: SULU1-coiled-coil2 GST fusion (Construct 1; amino acids 752-898) (protein, not shown: a dimerising Fc or GST)
chain: TILKTLKDEQTRKLAILAEQYEQSINEMMASQALRLDEAQEAECQALRLQLQQEMELLNAYQSKIKMQTEAQHERELQKLEQRVSLRRAHLEQKIEEELAALQKERSERIKNLLERQEREIETFDMESLRMGFGNLVTLDFPKEDYR
Consider B1, for which the binding result was “binds”.
